Experimental data: PubChem BioAssay AID504793 (Drosophila RNAi Screening Center, 2011)
The deposit covers about 23,000 reagents; below is an unselected part of those with a known target gene and a result. In the full data, 62 (0.27%) are marked active. 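Calls come from follow-up tests whose scores are not deposited, so confirmed genes may have low counts here; counts are not normalised per plate.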 Raw values are not corrected between plates.

Screen: 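Whole-genome screen for parts of the DNA damage checkpoint at G2/M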 (primary screen)
Cell system: Drosophila S2R+ cells
Knock-down reagent: long dsRNA against Drosophila genes, about 0.25 µg dsRNA per well
Time to read-out: 4 days of dsRNA, then 4 hours of drug before read-out
Challenge: doxorubicin 0.5 µM for 4 hours to cause double-strand breaks, in cells also given a low, harmless dose of dsRNA against nbs to sensitise the assay
Measured: 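Mitotic index as the number of phospho-histone H3-positive cells in each well following doxorubicin, given as raw counts without normalisation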
Scale: mitotic cells: higher = more cells in mitosis, weaker G2 arrest
Hit rule: 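a call needs confirmation in secondary tests, with other dsRNAs and a check of mitotic timing without damage, not just a high primary count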
Calls: active = confirmed in follow-up tests; inactive = not confirmed

CG14566 [SID104191519]: mitotic cells, replicate 1 = 2; call = inactive
CG14566 [SID104204013]: mitotic cells, replicate 1 = 2; call = inactive
Son [SID104196192]: mitotic cells, replicate 1 = 2; call = inactive
phyl [SID104187455]: mitotic cells, replicate 1 = 5; call = inactive
phyl [SID104203423]: mitotic cells, replicate 1 = 4; call = inactive
heph [SID104193874]: mitotic cells, replicate 1 = 9; call = inactive
heph [SID104193877]: mitotic cells, replicate 1 = 2; call = inactive
heph [SID104196575]: mitotic cells, replicate 1 = 10; call = inactive
heph [SID104216706]: mitotic cells, replicate 1 = 10; call = inactive
nAChRalpha7 [SID104199870]: mitotic cells, replicate 1 = 8; call = inactive
nAChRalpha7 [SID104199873]: mitotic cells, replicate 1 = 9; call = inactive
CG13992 [SID104182116]: mitotic cells, replicate 1 = 10; call = inactive
REPTOR [SID104194418]: mitotic cells, replicate 1 = 4; call = inactive
REPTOR [SID104203152]: mitotic cells, replicate 1 = 2; call = inactive
CG8509 [SID104199901]: mitotic cells, replicate 1 = 5; call = inactive
if [SID104200133]: mitotic cells, replicate 1 = 10; call = inactive
Cys [SID104196429]: mitotic cells, replicate 1 = 4; call = inactive
Cys [SID104206340]: mitotic cells, replicate 1 = 7; call = inactive
CG12699 [SID104185954]: mitotic cells, replicate 1 = 8; call = inactive
CG12699 [SID104204223]: mitotic cells, replicate 1 = 5; call = inactive
SP2353 [SID104187337]: mitotic cells, replicate 1 = 2; call = inactive
SP2353 [SID104202931]: mitotic cells, replicate 1 = 1; call = inactive
CG31323 [SID104194693]: mitotic cells, replicate 1 = 7; call = inactive
mRpL23 [SID104188099]: mitotic cells, replicate 1 = 13; call = inactive

Ordered by “mitotic cells, replicate 1” (highest first): some entries from above.
CG31323 [SID104194693]: mitotic cells, replicate 1 = 7; call = inactive
SP2353 [SID104187337]: mitotic cells, replicate 1 = 2; call = inactive
SP2353 [SID104202931]: mitotic cells, replicate 1 = 1; call = inactive

Next records follow:
bonsai [SID104184245]: mitotic cells, replicate 1 = 6; call = inactive
bonsai [SID104203052]: mitotic cells, replicate 1 = 18; call = inactive
CG16888 [SID104182333]: mitotic cells, replicate 1 = 3; call = inactive
DNaseII [SID104196102]: mitotic cells, replicate 1 = 9; call = inactive
CG14456 [SID104191505]: mitotic cells, replicate 1 = 4; call = inactive
CG14456 [SID104205284]: mitotic cells, replicate 1 = 6; call = inactive
CG43689 [SID104201926]: mitotic cells, replicate 1 = 12; call = inactive
CG43689 [SID104202427]: mitotic cells, replicate 1 = 7; call = inactive
CG43689 [SID104205107]: mitotic cells, replicate 1 = 1; call = inactive
CG13018 [SID104186066]: mitotic cells, replicate 1 = 7; call = inactive
CG11327 [SID104181938]: mitotic cells, replicate 1 = 5; call = inactive
CG17349 [SID104182402]: mitotic cells, replicate 1 = 2; call = inactive
CG32444 [SID104191469]: mitotic cells, replicate 1 = 7; call = inactive
dcma [SID104180038]: mitotic cells, replicate 1 = 7; call = inactive
dcma [SID104180130]: mitotic cells, replicate 1 = 5; call = inactive
Cadps [SID104201737]: mitotic cells, replicate 1 = 9; call = inactive
Cadps [SID104207808]: mitotic cells, replicate 1 = 10; call = inactive
Brd [SID104189477]: mitotic cells, replicate 1 = 4; call = inactive
CG6409 [SID104190422]: mitotic cells, replicate 1 = 11; call = inactive
CG6409 [SID104201830]: mitotic cells, replicate 1 = 16; call = inactive
CG6409 [SID104206181]: mitotic cells, replicate 1 = 7; call = inactive
